{
  "source": "patent US20220091133A1",
  "about": "“METHODS AND ASSAYS FOR IMMUNE PHENOTYPING” (Washington University, priority 2020, published 2022)",
  "test_system": "peripheral blood mononuclear cells (T cell IFN-γ production)",
  "assay_type": "cell-based, human",
  "data": [
    {"smiles": "C[C@@H]1C[C@H]2[C@@H]3CCC4=CC(=O)C=C[C@]4(C)[C@@]3(F)[C@@H](O)C[C@]2(C)[C@@]1(O)C(=O)COP(=O)(O)O", "note": "[dexamethasone, dexamethasone phosphate]", "values": [
      {"measurement": "effect on the functional immune response on ELISpot", "result": "does not significantly affect"},
      {"measurement": "number of functional T cells producing interferon-γ and intensity of the response", "result": "decrease significantly"}
    ]}
  ]
}
